These results are taken from PMC7819943, “Rice protein-binding microarrays: a tool to detect cis-acting elements near promoter regions in rice”.

Amino acid sequences for entries named in this document (tags omitted).
UniProt Q0JBA9, entry or part of it: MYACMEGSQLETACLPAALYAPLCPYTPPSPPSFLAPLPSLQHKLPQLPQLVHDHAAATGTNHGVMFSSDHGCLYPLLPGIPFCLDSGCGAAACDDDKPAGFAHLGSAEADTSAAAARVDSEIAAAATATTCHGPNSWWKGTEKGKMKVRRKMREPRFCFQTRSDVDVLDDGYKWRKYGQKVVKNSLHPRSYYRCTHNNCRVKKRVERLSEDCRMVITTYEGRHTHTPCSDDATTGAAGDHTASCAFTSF

The other results are listed elsewhere or left out.

In the assay the target is OsWRKY34 (Oryza sativa, UniProt Q0JBA9 1-250). The experiment in a line: protein-binding microarray (RPBM); PBS, 2% BSA, 51.3 ng/ul salmon testes DNA, 50 uM zinc acetate, 200 nM TF, 25 C, 1 h; high values mean tight binding. The following applies: protein: recombinant; tags: N-terminal polyhistidine and DsRed monomer fusion (pET32a); label: CyDye5-dUTP incorporated in the synthesized complementary strand; 3' TTTTT single-stranded linker to array surface; dsDNA, one strand shown. The method, boiled down: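 Transcription factors, each fused N-terminally to a polyhistidine tag and DsRed, were expressed in E. coli BL21-CodonPlus and purified on Ni–NTA. A custom Agilent array was made double-stranded by primer extension with Cy5-dUTP and blocked with 2% BSA. It was incubated with 200 nM protein in PBS, 2% BSA, salmon testes DNA and 50 µM zinc acetate at 25 °C for 1 h, then washed. The binding signal is per-feature fluorescence intensity (arbitrary units) read on an Axon 4000B scanner.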
“CCCCTATTTAGCCGCGCCATTTTCCCCTCGCTAGCTGTGTCGGAGTCACCTAGTGCAG”: the binding signal was 8400 fluorescence intensity (a.u.). The value for “TACTCCCCTCTGCTGCACTGGACTTGGGGTGGGGTGGAGCCGGAGTCACCTAGTGCAG” was 11400 fluorescence intensity (a.u.); that for “TTATATATATGTCTAGTACTATGTTGATTATCTCTCATGCCGGAGTCACCTAGTGCAG” was 8280 fluorescence intensity (a.u.); that for “TCTCCTTTTATAGCCACCCGTCGACTCCAACTCCTCTCAACGGAGTCACCTAGTGCAG” was 8640 fluorescence intensity (a.u.).

Regarding “GCTCACTGTACCATGCGTGACAAAGCCGCGCTTTTTCTAGCGGAGTCACCTAGTGCAG”, the binding signal was 8470 fluorescence intensity (a.u.). The same measure for “CATTTGACTTTTTTCTAGTCAAAGTTATTTATATTTAATTCGGAGTCACCTAGTGCAG”: 14100 fluorescence intensity (a.u.); for “CTTCTGGTTTTGAGGTATTTGGGGTTACTTCACAAAACTTCGGAGTCACCTAGTGCAG”: 8490 fluorescence intensity (a.u.); for “GACGTTTTCTGCCTCTTGCATATTGTCCTGTCCAAGCAAACGGAGTCACCTAGTGCAG”: 13000 fluorescence intensity (a.u.). For “CGCCCCGCCGCCAAACCAATCTTTCCTCGCGGCGGCGTTTCGGAGTCACCTAGTGCAG”, the binding signal was 8350 fluorescence intensity (a.u.).

In the case of “TCACAATGTGTGGGTAGCAAGGGGTTGTTTGTGATAGGGGCGGAGTCACCTAGTGCAG”, the binding signal was 12400 fluorescence intensity (a.u.). As to “TGGGGTCATGTTTGTACTTTGGCAACTGGTCGACTTCATACGGAGTCACCTAGTGCAG”, the binding signal is 18400 fluorescence intensity (a.u.). The value for “CTTCTGTTTAAACGTACGCTTTCCCGTTGTCCTGTGGTTTCGGAGTCACCTAGTGCAG” was 12600 fluorescence intensity (a.u.). Take “ATTTATAGTCAAAGATTTGAAGGTTTGACTTTACTCTGCTCGGAGTCACCTAGTGCAG”: the binding signal was 11600 fluorescence intensity (a.u.). As to “TGTTTTTACACTTGCATTCCTACCAAAATCCTGTGTTTTTCGGAGTCACCTAGTGCAG”, the binding signal is 11000 fluorescence intensity (a.u.). The value for “GAGAGAGACCTATCCACTCCTCCATGCGGCATCGCACCTCCGGAGTCACCTAGTGCAG” was 8070 fluorescence intensity (a.u.); that for “TTGACGCCGTTGACTTTTTAAAAAATATTTGACCGTTCTTCGGAGTCACCTAGTGCAG” was 37100 fluorescence intensity (a.u.). Turning to “CACTTCACTTCACGCATCCGCTTCGAGCACACAACGAGTCCGGAGTCACCTAGTGCAG”, the binding signal was 8360 fluorescence intensity (a.u.).

For “CCGCCATCTCCACCTCCGCCGCCGCGTCCAACTCCACCTTCGGAGTCACCTAGTGCAG”, the binding signal is 9110 fluorescence intensity (a.u.). The same measure for “AAGCGGTACCATGGGCGGGAGGGTATTTCTGTCCTTTTGTCGGAGTCACCTAGTGCAG”: 17600 fluorescence intensity (a.u.); for “TTCATATACGCATTGTTTCGATCCATGTCGACTCACACCCCGGAGTCACCTAGTGCAG”: 8190 fluorescence intensity (a.u.); for “ATGACGCTATTTTACCTCACGTACCTCTTGTCCGTATGGCCGGAGTCACCTAGTGCAG”: 8560 fluorescence intensity (a.u.). “CCACTCCAACGCCATCACTCGTTCACTCCTACCCACGACACGGAGTCACCTAGTGCAG”: the binding signal was 13400 fluorescence intensity (a.u.). “TCCACCTGCCCCACTGCAGGCTGCAGCTCACACCCAAACGCGGAGTCACCTAGTGCAG”: the binding signal is 8120 fluorescence intensity (a.u.). “AAAGCTTCTTTTCACACCACTCATCTGCACACTTGCACTCCGGAGTCACCTAGTGCAG”: the binding signal was 10600 fluorescence intensity (a.u.). Take “ACGGGTTATGGGTTAAGAGTGGCATTTGGGCGAATCCCATCGGAGTCACCTAGTGCAG”: the binding signal was 9200 fluorescence intensity (a.u.). The same measure for “CTTCTCTCTTTTCTTGATGTCCTTTTCTATTTTGCTTACCCGGAGTCACCTAGTGCAG”: 11800 fluorescence intensity (a.u.).

For the sequence “ATCACCACTCTCCAACATTTATCCGCCATACCTCGCTCCACGGAGTCACCTAGTGCAG”, the binding signal was 9850 fluorescence intensity (a.u.). The value for “TTTTACGTATCTAGGTATTTGCTCAAGTTGTTCTTACCTTCGGAGTCACCTAGTGCAG” was 8140 fluorescence intensity (a.u.); that for “GAACATCCCACCTGCCCCAACCATGTCGGCGCCGCCGCCGCGGAGTCACCTAGTGCAG” was 8330 fluorescence intensity (a.u.). The value for “CTGGGGATTGGGGAGGAGGCCGCCGGGGCGAGGCGGGAGACGGAGTCACCTAGTGCAG” was 10200 fluorescence intensity (a.u.). The same measure for “ACTCCATTCGTTTCATATTATAAGACTTTCTAGCATTATCCGGAGTCACCTAGTGCAG”: 10200 fluorescence intensity (a.u.).

For the sequence “CCCATTTTACCATCTTGGAATCGTTGCATCTCTCAGACTCCGGAGTCACCTAGTGCAG”, the binding signal is 10600 fluorescence intensity (a.u.). The same measure for “GTTGTTCTTGGCGGCTAGGTCGTGGGGTTTTCTTGTTTCGCGGAGTCACCTAGTGCAG”: 22800 fluorescence intensity (a.u.); for “GAAAAGGAACTAGTAATAAGTAGTTAATTCTAGCTTAGCACGGAGTCACCTAGTGCAG”: 8190 fluorescence intensity (a.u.). The value for “TGTATTGCAACACTAGTTGTCACTAGCTAGCCTATTTAGTCGGAGTCACCTAGTGCAG” was 8660 fluorescence intensity (a.u.); that for “TTATATATAGCCACACACGTCCTTGTCTAGTCCACTACACCGGAGTCACCTAGTGCAG” was 9710 fluorescence intensity (a.u.).

In the case of “CCGGCCCAAGTCAAGTGCTCTGTTCTGTTCTCAGCCAACCCGGAGTCACCTAGTGCAG”, the binding signal is 9180 fluorescence intensity (a.u.). The value for “TTTCTTCTTCTCGTCTCTTCTCGCCGCCGCCGCCGCAATGCGGAGTCACCTAGTGCAG” was 9300 fluorescence intensity (a.u.). Turning to “GGTCGGGTCGGGTCGGATCCCCTCGCCGCAACGGCCTTAGCGGAGTCACCTAGTGCAG”, the binding signal was 11500 fluorescence intensity (a.u.). The same measure for “AATCTTGAAATTTGTGTACGTCTTATATTATACATCTCACCGGAGTCACCTAGTGCAG”: 8810 fluorescence intensity (a.u.).

“ACATGACCCACGGGCCCCATCTCCCCATCTTCTTCTTCCTCGGAGTCACCTAGTGCAG”: the binding signal is 8190 fluorescence intensity (a.u.). Regarding “GTTTTTAGTCGACATGATAGCTTTGACCCTGTTGACTGGCCGGAGTCACCTAGTGCAG”, the binding signal was 11200 fluorescence intensity (a.u.). The value for “CTTTGGCTCCAGTTGTCCGTGATGCCTCCGTCTCTGATCCCGGAGTCACCTAGTGCAG” was 8060 fluorescence intensity (a.u.); that for “TCCATCTCCATTGGCCACCCACCACCATTGTCTTCTCCTCCGGAGTCACCTAGTGCAG” was 8110 fluorescence intensity (a.u.); that for “CTTATTTCAAATGTGTGGGTATACATATGTGCACATATATCGGAGTCACCTAGTGCAG” was 8440 fluorescence intensity (a.u.). The value for “GCGATCACCACTTCACCGCCGGGTTCTGCCTCGCATTCTGCGGAGTCACCTAGTGCAG” was 10800 fluorescence intensity (a.u.); that for “CTGAATTTGCTGCTGCCGTTTCTGAATTTGTGGTGGTTTCCGGAGTCACCTAGTGCAG” was 8150 fluorescence intensity (a.u.); that for “TTTGCGCTCTGTTGGGTAGACCTCCTCGTTGGCATCTTGACGGAGTCACCTAGTGCAG” was 9910 fluorescence intensity (a.u.).

In the case of “CACACACTTGGATGCTAGCTGCACCGCCATTTGTTTATTGCGGAGTCACCTAGTGCAG”, the binding signal was 8720 fluorescence intensity (a.u.). Consider “AAAGGGGCGACCCCATCGGTCGGGTCGGGTTGGTTGGCGCCGGAGTCACCTAGTGCAG”, for which the binding signal is 8740 fluorescence intensity (a.u.).

Regarding “TGGATCCGGTTCTTCTTCGCCGACGCCCCGGCCTCCGCCTCGGAGTCACCTAGTGCAG”, the binding signal was 9040 fluorescence intensity (a.u.). The same measure for “GTAATGGTTGTGTGTATCCCTTGTTCGTGTAGAAGCCAGACGGAGTCACCTAGTGCAG”: 10800 fluorescence intensity (a.u.). For “TCTTGTAGTCATCTCTCGCTCGCACACAACTAATAACCAACGGAGTCACCTAGTGCAG”, the binding signal is 8330 fluorescence intensity (a.u.). The value for “TTCATTTTTTAAGGGTATGTTGTCTTATTTCTGCATGTCTCGGAGTCACCTAGTGCAG” was 10800 fluorescence intensity (a.u.).
